PubChem BioAssay AID1259254 – NCATS | 2017

Assay: 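Gene knock-downs that lead to re-replication, shown by excess G2 DNA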 (primary screen)
System: human HCT116 colorectal cancer cells
Knock-down reagent: single siRNA against human genes
Timing: 3 days
Measured: 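Imaged Hoechst DNA stain sorts each cell into a cycle phase by DNA amount; per plate, G2 fraction set to 0% for non-targeting and 100% for GMNN siRNA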
Direction: G2 robust z-score and G2 cells, % of GMNN control: higher = more G2 cells, more excess DNA replication; raw share of cells in G2: higher = larger share of cells with G2 DNA content
Active means: 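Active siRNAs have a G2 robust z of 5 or more median absolute deviations over the median, which in these data means about 38% or higher of GMNN control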
The deposit covers about 59,000 reagents; below is a random part of them. About 1,550 of them (2.6%) were called active. 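G2 share is only a proxy for re-replication; each gene was hit by three separate siRNAs, and active genes were retested.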 The raw values are shown without normalisation. Not given: the amount of reagent.

gene,PubChem SID,G2 robust z-score,"G2 cells, % of GMNN control",raw share of cells in G2 (%),call
ANGPTL6 (GeneID 83854),SID160751432,-0.841,-2.95,3.69,inactive
ANGPTL6 (GeneID 83854),SID160751433,-0.297,0.881,4.51,inactive
ANGPTL6 (GeneID 83854),SID160751434,-0.981,-3.93,3.79,inactive
DNAAF8 (GeneID 146562),SID160758381,0.212,4.46,5.32,inactive
DNAAF8 (GeneID 146562),SID160758382,0.199,4.37,4.26,inactive
DNAAF8 (GeneID 146562),SID160758383,0.566,6.95,5.49,inactive
KLHL6 (GeneID 89857),SID160753463,-0.268,1.08,4.54,inactive
KLHL6 (GeneID 89857),SID160753465,-0.132,2.04,3.64,inactive
KLHL6 (GeneID 89857),SID160753466,0.106,3.71,4.1,inactive
PAICS (GeneID 10606),SID160728838,1.67,14.7,12.3,inactive
PAICS (GeneID 10606),SID160728839,-0.333,0.624,4.04,inactive
PAICS (GeneID 10606),SID160728840,-1,-4.09,3.92,inactive
PAICS (GeneID 10606),SID160769147,1.38,12.7,8.47,inactive
PAICS (GeneID 10606),SID160769148,1.71,15,8.66,inactive
PAICS (GeneID 10606),SID160769149,0.109,3.73,4.23,inactive
ZNF140 (GeneID 7699),SID160719171,4.33,33.4,20.9,inactive
ZNF140 (GeneID 7699),SID160719172,1.56,13.9,9.18,inactive
ZNF140 (GeneID 7699),SID160731891,-1.21,-5.55,1.68,inactive
SFTA3 (GeneID 253970),SID160732802,-0.808,-2.72,2.33,inactive
SFTA3 (GeneID 253970),SID160762128,0.574,7.01,6.12,inactive
SFTA3 (GeneID 253970),SID160762129,0.835,8.84,6.16,inactive
C4BPB (GeneID 725),SID160729815,-1.25,-5.81,2.58,inactive
C4BPB (GeneID 725),SID160729824,0.608,7.25,6.74,inactive
C4BPB (GeneID 725),SID160729834,0.858,9.01,7.05,inactive
EXD2 (GeneID 55218),SID160743260,-1.52,-7.74,3.04,inactive
EXD2 (GeneID 55218),SID160743261,-0.134,2.03,5.18,inactive
EXD2 (GeneID 55218),SID160743262,-0.749,-2.3,3.62,inactive
IL13RA1 (GeneID 3597),SID160775782,3.52,27.7,15.1,inactive
IL13RA1 (GeneID 3597),SID160775783,-0.244,1.25,6.16,inactive
IL13RA1 (GeneID 3597),SID160775784,-0.634,-1.5,3.65,inactive
PPP2R3B (GeneID 28227),SID160738824,-0.177,1.72,5.35,inactive
PPP2R3B (GeneID 28227),SID160738825,-1.18,-5.32,2.7,inactive
PPP2R3B (GeneID 28227),SID160738826,1.78,15.5,8.16,inactive
RNF32 (GeneID 140545),SID160757786,-0.738,-2.22,3.34,inactive
RNF32 (GeneID 140545),SID160757787,1.13,10.9,6.57,inactive
RNF32 (GeneID 140545),SID160757788,-0.521,-0.702,2.32,inactive
CCDC73 (GeneID 493860),SID160768249,0.136,3.93,5.14,inactive
CCDC73 (GeneID 493860),SID160768250,-1.05,-4.43,1.74,inactive
CCDC73 (GeneID 493860),SID160768251,-0.656,-1.65,2.56,inactive
OSTF1 (GeneID 26578),SID160738097,-1.08,-4.65,2.66,inactive
OSTF1 (GeneID 26578),SID160738098,0.99,9.93,8.24,inactive
OSTF1 (GeneID 26578),SID160738099,-0.98,-3.93,1.92,inactive

Next part (9 carried over from the part before).
gene,PubChem SID,G2 robust z-score,"G2 cells, % of GMNN control",raw share of cells in G2 (%),call
RNF32 (GeneID 140545),SID160757786,-0.738,-2.22,3.34,inactive
RNF32 (GeneID 140545),SID160757787,1.13,10.9,6.57,inactive
RNF32 (GeneID 140545),SID160757788,-0.521,-0.702,2.32,inactive
CCDC73 (GeneID 493860),SID160768249,0.136,3.93,5.14,inactive
CCDC73 (GeneID 493860),SID160768250,-1.05,-4.43,1.74,inactive
CCDC73 (GeneID 493860),SID160768251,-0.656,-1.65,2.56,inactive
OSTF1 (GeneID 26578),SID160738097,-1.08,-4.65,2.66,inactive
OSTF1 (GeneID 26578),SID160738098,0.99,9.93,8.24,inactive
OSTF1 (GeneID 26578),SID160738099,-0.98,-3.93,1.92,inactive
MRS2 (GeneID 57380),SID160745914,1.35,12.5,10.8,inactive
MRS2 (GeneID 57380),SID160745915,0.741,8.18,7.24,inactive
MRS2 (GeneID 57380),SID160745916,-0.462,-0.283,4.12,inactive
EDN3 (GeneID 1908),SID160758116,-0.0495,2.62,6.19,inactive
EDN3 (GeneID 1908),SID160758127,0.0746,3.49,6.59,inactive
EDN3 (GeneID 1908),SID160758136,0.196,4.35,5.21,inactive
IGFALS (GeneID 3483),SID160775626,-0.259,1.14,4.62,inactive
IGFALS (GeneID 3483),SID160775627,3.58,28.2,16.4,inactive
IGFALS (GeneID 3483),SID160775628,-0.473,-0.359,4.91,inactive
DPYSL5 (GeneID 56896),SID160745235,-0.57,-1.05,3.9,inactive
DPYSL5 (GeneID 56896),SID160745236,0.264,4.82,6.17,inactive
DPYSL5 (GeneID 56896),SID160745237,4.94,37.7,22.9,inactive
CAVIN3 (GeneID 112464),SID160724717,-0.504,-0.579,4.98,inactive
CAVIN3 (GeneID 112464),SID160724718,-0.698,-1.94,3.06,inactive
CAVIN3 (GeneID 112464),SID160754689,-0.531,-0.77,5.35,inactive
CETN3 (GeneID 1070),SID160742013,0.0887,3.59,4.89,inactive
CETN3 (GeneID 1070),SID160742024,-0.583,-1.14,4.31,inactive
CETN3 (GeneID 1070),SID160742035,0.226,4.56,4.76,inactive
RBM22P1 (GeneID 400645),SID160733322,-0.5,-0.552,4.56,inactive
RBM22P1 (GeneID 400645),SID160767012,-0.0446,2.65,4.78,inactive
RBM22P1 (GeneID 400645),SID160767013,1.86,16,9.88,inactive
TULP3 (GeneID 7289),SID160718465,1.33,12.3,10.6,inactive
TULP3 (GeneID 7289),SID160718466,-0.851,-3.02,2.7,inactive
TULP3 (GeneID 7289),SID160734449,0.514,6.58,5.67,inactive
NOTCH3 (GeneID 4854),SID160778158,-0.102,2.25,6.23,inactive
NOTCH3 (GeneID 4854),SID160778159,0.559,6.9,5.47,inactive
NOTCH3 (GeneID 4854),SID160778160,4.91,37.5,20.3,inactive
DOCK5 (GeneID 80005),SID160749936,2.46,20.3,12.9,inactive
DOCK5 (GeneID 80005),SID160749939,1.51,13.6,10.3,inactive
DOCK5 (GeneID 80005),SID160749940,-1.32,-6.3,0.655,inactive
GAL3ST3 (GeneID 89792),SID160753425,-0.96,-3.79,3.91,inactive
GAL3ST3 (GeneID 89792),SID160753426,-0.849,-3,3.68,inactive
GAL3ST3 (GeneID 89792),SID160753427,-0.56,-0.974,4.11,inactive
GMDS (GeneID 2762),SID160771695,-1.09,-4.72,3.52,inactive
GMDS (GeneID 2762),SID160771701,3.24,25.8,15.1,inactive
GMDS (GeneID 2762),SID160771712,2.14,18,10.1,inactive
SEC24D (GeneID 9871),SID160723310,-1.1,-4.77,1.57,inactive
SEC24D (GeneID 9871),SID160723311,-1.19,-5.43,2.55,inactive
SEC24D (GeneID 9871),SID160723312,2.18,18.3,12.1,inactive
ZNF561 (GeneID 93134),SID160754442,1.08,10.6,6.73,inactive
ZNF561 (GeneID 93134),SID160754443,-0.752,-2.33,2.36,inactive
ZNF561 (GeneID 93134),SID160754444,0.269,4.86,5.23,inactive
PMP2 (GeneID 5375),SID160714537,-0.683,-1.84,3.53,inactive
PMP2 (GeneID 5375),SID160714538,-0.194,1.61,5.53,inactive
PMP2 (GeneID 5375),SID160714539,0.282,4.95,6.57,inactive
